# Source: PubChem BioAssay AID2685 (National Center for Advancing Translational Sciences (NCATS), 2010)
# The list shows a part of the results. The main result of the screen is listed elsewhere. These columns were measured beside it and carry no call. The list favours compounds with an active or inconclusive main result. Words in brackets tell the shape of the fitted curve; partial curves, single points and poor fits give uncertain potencies.
# Assay: qHTS Assay for Lipid Storage Modulators in Drosophila S3 Cells;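 on cell number change: cells counted by Cell Tracker Red CMTPX staining in the red channel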
# Settings: BODIPY lipid droplet fluorescence, 18-24 h; for cell number change: measured here: cell count max response, cells fed with added oleic acid
# Procedure, shortened: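 Drosophila S3 cells got compounds at several concentrations plus oleic acid (400 uM solution). Laser-scanning cytometry with 488 nm excitation read lipid droplets at 500-530 nm and cells at 575-640 nm. Percent activity was relative to 20 uM Triacsin C.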
# [1] = measured here: cell number channel AC50, cells fed with added oleic acid
# [2] = measured here: lipid fluorescence (Fed channel) AC50, cells fed with added oleic acid
Compound,cell number change,AC50 [1],AC50 [2]
COc1cc(OC)cc(C(=O)N2CCN(C3CCCCC3)CC2)c1,12.6%,,
Cc1cc2n(n1)C(c1sccc1C)Nc1ccccc1-2 (stereo not drawn),-10.4%,,
COc1ccc(/C(N)=N/OC(=O)c2cccc([N+](=O)[O-])c2)cc1,12.2%,"6.51 µM [rising, single point]","14.6 µM [falling, single point]"
CC(C)c1ccc(N(CC(=O)NCc2cccnc2)S(=O)(=O)c2ccccc2)cc1,3.78%,,"20.6 µM [rising, single point]"
Cc1sc2nc(CSCC(=O)NC3CCCCC3)[nH]c(=O)c2c1C,-6.92%,,"0.116 µM [falling, full curve, poor fit]"
Cc1ccc(N2CCN(C(=S)Nc3ccc(Cl)cc3)CC2)cc1,7.14%,,"29.1 µM [rising, single point]"
Cc1ccc(C(=C2C3C=CC2C2C(=O)NC(=O)C32)c2ccc(C)cc2)cc1 (stereo not drawn),,"6.51 µM [falling, single point]","6.51 µM [falling, single point]"
CCCCCCCN1N=C(C)C(C(=O)c2ccccc2)C1=O (stereo not drawn),-15.2%,,"6.51 µM [falling, single point]"
Cc1ccc(NC(=O)Nc2ccc(Cl)cc2)c(Br)c1,-61.1%,"23.1 µM [falling, single point]",
CCN=c1scc(-c2ccc(F)cc2)n1/N=C/c1ccccn1,35.6%,"0.731 µM [rising, full curve, poor fit]",
COc1cccc(NC(=O)CCS(=O)(=O)c2ccc3c(c2)oc(=O)n3C)c1,-4.42%,,"0.58 µM [rising, single point]"
CCOc1cc(/C=C(\C#N)c2[nH]nc(N)c2C#N)ccc1O,9.22%,,"3.66 µM [falling, partial curve]"
COc1ccc(CCNC(=O)C(=O)NCCOc2ccccc2)cc1OC,39.4%,"29.1 µM [rising, single point]",
O=C(Nc1ccccn1)c1ccc(C(=O)c2ccccc2)cc1,-24.1%,,"29.1 µM [falling, single point]"
CCOc1ccccc1Oc1cn[nH]c1-c1ccc(OC)cc1O,-21.2%,"0.517 µM [falling, full curve, poor fit]","0.651 µM [falling, full curve, poor fit]"
COc1ccc(NS(=O)(=O)c2csc(C(=O)N3CCCC3)c2)c(OC)c1,-16.9%,,
CC(C)(C)C(=O)c1cn(CC(=O)NCc2ccc3c(c2)OCO3)c2ccccc12,-8.67%,,"6.51 µM [rising, single point]"
O=C(COC(=O)CNC(=O)c1ccc(Cl)cc1Cl)NC(=O)NC1CCCCC1,-15.4%,,"0.82 µM [falling, full curve]"
CCCCCN1CSC(=S)N(Cc2ccccc2)C1,-5.68%,,"0.651 µM [falling, full curve]"
Cc1ccc(C)c(S(=O)(=O)Nc2ccc(C(=O)NCCCN3CCCC3=O)cc2)c1,1.49%,"0.103 µM [rising, full curve, poor fit]","29.1 µM [rising, single point]"
CC1=C/C(=N\OS(=O)(=O)c2ccccc2)C(C)=CC1=O,-91.7%,"16.4 µM [falling, partial curve]","20.6 µM [falling, partial curve]"

# Arranged by molecular weight (smallest number first): 3 of the compounds above.
Compound,cell number change,AC50 [1],AC50 [2]
Cc1cc2n(n1)C(c1sccc1C)Nc1ccccc1-2 (stereo not drawn),-10.4%,,
COc1ccc(CCNC(=O)C(=O)NCCOc2ccccc2)cc1OC,39.4%,"29.1 µM [rising, single point]",
O=C(COC(=O)CNC(=O)c1ccc(Cl)cc1Cl)NC(=O)NC1CCCCC1,-15.4%,,"0.82 µM [falling, full curve]"

# More results follow.

Compound,cell number change,AC50 [1],AC50 [2]
CC(C)(C)n1cnc2cc(NC(=O)c3cccs3)ccc21,-36.2%,,
Cc1cc(S(=O)(=O)N2CCCCC2)ccc1OCC(=O)N1CCCC1,-18.2%,,"29.1 µM [rising, single point]"
CCCCN(CC)CCNC(=O)Cn1cnc2sc(C)c(S(=O)(=O)N3CCC(C)CC3)c2c1=O,32.9%,"32.6 µM [rising, single point]",
Cc1ccc(S(=O)(=O)N2CCN(C(=O)COC(=O)CNC(=O)c3ccccc3)CC2)c(C)c1,-38%,"0.00731 µM [falling, full curve, poor fit]",
CCc1ccc(N2CC(C(=O)Nc3ccc4c(c3)OCCO4)CC2=O)cc1 (stereo not drawn),25.7%,,"29.1 µM [rising, partial curve]"
Cc1cccc(S(=O)(=O)NC2CCCCCCC2)c1,1.9%,,"29.1 µM [rising, partial curve, poor fit]"
CC(C)NC(=O)CCCc1ccccc1,10.7%,,
OC(CNCC1(N2CCCCC2)CCCCC1)COc1ccc(Cl)cc1Cl (stereo not drawn),23.8%,,
COc1ccc(CCNC(=O)c2cnn3cccnc23)cc1OC,,"0.58 µM [rising, single point]",
Cc1ccc(C)c(OCc2nc3ccc(S(=O)(=O)Nc4c(C)n(C)n(-c5ccccc5)c4=O)cc3[nH]2)c1,64%,"10.3 µM [rising, partial curve]",
O=C(NCc1ccco1)c1cc2n(n1)C(C(F)(F)F)CC(c1ccc(Cl)c(Cl)c1)N2 (stereo not drawn),-19.8%,,
Cc1ccccc1NC(=O)COC(=O)c1cc[n+]([O-])cc1,6.96%,,"0.00517 µM [rising, full curve, poor fit]"
C=CCN1C(=O)c2ccccc2NC1c1ccc(Br)s1 (stereo not drawn),-10.5%,,
S=C(NCCc1ccccc1)N1CCn2cccc2C1c1ccncc1 (stereo not drawn),,,"23.1 µM [falling, partial curve]"
O=C(Nc1ccc(C(=O)c2ccccc2)cc1)c1ccccc1,-5.62%,,"3.66 µM [falling, single point]"
N#CC(Cc1cccc(CC(C#N)(c2ccccc2)c2ccccc2)c1)(c1ccccc1)c1ccccc1,30.5%,"18.4 µM [rising, partial curve, poor fit]","4.61 µM [rising, single point]"
O=C(NCc1ccccn1)Nc1cccc(Cl)c1,-24.9%,,"20.6 µM [falling, single point]"
CN1CCCN(c2ccc([N+](=O)[O-])cc2)CC1,16.5%,,"32.6 µM [falling, single point]"
Cc1ccc(-c2cc(-c3ccc(C)cc3O)[nH]n2)cc1,-13.7%,,
Cc1cc(S(=O)(=O)Nc2cccc(Cl)c2)c(C)s1,-29.8%,,"11.6 µM [falling, partial curve, poor fit]"
Cc1c(/C=N/n2cnnc2)c2ccccc2n1CCOc1ccc(Cl)cc1,-21.2%,,"0.58 µM [rising, full curve]"

Compound,cell number change,AC50 [1],AC50 [2]
Cc1ccc(C)c(OCC(=O)Nc2c[nH]c(=O)[nH]c2=O)c1,-9.32%,,"0.082 µM [falling, full curve, poor fit]"
CN1CCN(C(=S)Nc2ccc(Cl)c(Cl)c2)CC1,-16.8%,"0.0058 µM [falling, full curve, poor fit]","0.164 µM [falling, partial curve, poor fit]"
Cc1ccsc1CN(C)C(=O)CN1C(=O)NC(c2ccccc2)(c2ccccc2)C1=O,-1.98%,,"6.51 µM [falling, single point]"
Cc1cccc(C(=O)Nc2cccc(-c3cnc4ccccc4n3)c2)c1,,"0.731 µM [rising, full curve]","0.82 µM [rising, full curve]"
CCOc1ccc(OCCCCNCCN)cc1,-3.75%,,"4.11 µM [falling, full curve]"
Cc1ccc(NC(=O)CN2CCC3(O)CCCCC3C2c2ccc3c(c2)OCO3)c(C)c1 (stereo not drawn),-10.8%,,
O=C(N/N=C/c1cccc(Oc2ccccc2)c1)c1ccc(O)cc1O,-7.43%,,"29.1 µM [falling, single point]"
CCN(CC(=O)Nc1ccc2c(c1)OCCO2)Cc1cc(=O)oc2cc(C)c(C)cc12,115%,"23.1 µM [rising, single point]",
COc1ccc(N2C(=O)CC(Sc3ncccc3C(=O)O)C2=O)cc1 (stereo not drawn),-96.4%,"18.4 µM [falling, partial curve]","0.092 µM [falling, full curve, poor fit]"
CCCn1c(=O)c(C(=O)Nc2c(C)n(C)n(-c3ccccc3)c2=O)c(O)c2ccccc21,-1.55%,,"0.00517 µM [rising, full curve, poor fit]"
Cc1ccc(CNC(=O)C(=O)NCC2OCCN2S(=O)(=O)c2ccc3c(c2)OCCO3)cc1 (stereo not drawn),30.3%,"9.2 µM [rising, partial curve]","2.06 µM [rising, full curve]"
COc1ccc2oc(=O)c(/C(C)=N/Nc3nc(-c4cc(C)ccc4C)cs3)cc2c1,-2.24%,,
O=C(C1CC1)N1CCc2cc(Br)cc(S(=O)(=O)NCCCN3CCCCC3)c21,-1.28%,,
C=CCN(C(=O)CN1CCCCC1)c1nc(-c2ccccc2)cs1,22.2%,,"29.1 µM [rising, single point]"
O=C(NCCC1=CCCCC1)c1cc(S(=O)(=O)N2CCOCC2)c(Cl)cc1Cl,,"0.116 µM [rising, full curve, poor fit]","20.6 µM [rising, partial curve, poor fit]"
CN(C)c1nc(N)nc(CSc2ccccn2)n1,20.2%,,"2.91 µM [rising, single point]"
CN(CCc1cn[nH]c1)C(=O)C1CCC(=O)N(CC2CCCCC2)C1 (stereo not drawn),-7.73%,,
O=C(Nc1nnc(CCN2CCOCC2)s1)C1CCCCC1,-17%,,"29.1 µM [falling, single point]"
CC1CCC2C(C1)c1sc(=O)[nH]c1SC2(C)C (stereo not drawn),-85.3%,"2.06 µM [rising, partial curve]",
Cc1nc2ccc(S(=O)(=O)NC(C(=O)N3CCC(C)CC3)C(C)C)cc2s1 (stereo not drawn),-11.7%,"1.16 µM [falling, single point]","1.16 µM [falling, single point]"
